Source: patent US7354905B2, “Prodrugs of thrombin inhibitors” (AstraZeneca AB, priority 1995, dated 2008)
Some of these results come from one statement about several compounds together.

Biological target: T1, Human thrombin (Homo sapiens, UniProt P00734)
T1 construct: the conversion of the proenzyme prothrombin to the active enzyme thrombin; purchased Sigma Chem Co T 6769
Experiment: Test A: Determination of thrombin clotting time (TT)
Type: biochemical
Settings: concentration of inhibitor that doubles the thrombin clotting time for human plasma

SMILES	IC50
C=CCOC(=O)N=C(N)c1ccc(CNC(=O)C2CCN2C(=O)C(NCC(=O)OCC)C2CCCCC2)cc1 [Example 1, EtOOCCH2—(R)Cgl-Aze-Pab-COOCH2CH═CH2]	> 1000 nM
C=CCOC(=O)N=C(N)c1ccc(CNC(=O)C2CCN2C(=O)C(NCC(=O)OCCC)C2CCCCC2)cc1 [Example 2, nPrOOCCH2—(R)Cgl-Aze-Pab-COOCH2CH═CH2]	> 1000 nM
C=CCOC(=O)N=C(N)c1ccc(CNC(=O)C2CCN2C(=O)C(NCC(=O)OC(C)(C)C)C2CCCCC2)cc1 [Example 3, tBuOOCCH2—(R)Cgl-Aze-Pab-COOCH2CH═CH2]	> 1000 nM
CCOC(=O)CNC(C(=O)N1CCC1C(=O)NCc1ccc(C(N)=NC(=O)OCC)cc1)C1CCCCC1 [Example 4, EtOOCCH2—(R)Cgl-Aze-Pab-COOEt]	> 1000 nM
CCCOC(=O)N=C(N)c1ccc(CNC(=O)C2CCN2C(=O)C(NCC(=O)OCC)C2CCCCC2)cc1 [Example 5, EtOOCCH—(R)Cgl-Aze-Pab-COO-nPr]	> 1000 nM
CCCOC(=O)N=C(N)c1ccc(CNC(=O)C2CCN2C(=O)C(NCC(=O)OC)C2CCCCC2)cc1 [Example 6, MeOOCCH2—(R)Cgl-Aze-Pab-COO-nPr]	> 1000 nM
CCOC(=O)CNC(C(=O)N1CCC1C(=O)NCc1ccc(C(N)=NC(=O)OCCOC)cc1)C1CCCCC1 [Example 7, EtOOCCH2—(R)Cgl-Aze-Pab-COOCH2CH2OMe]	> 1000 nM
COCCOC(=O)N=C(N)c1ccc(CNC(=O)C2CCN2C(=O)C(NCC(=O)OC)C2CCCCC2)cc1 [Example 8, MeOOCCH2—(R)Cgl-Aze-Pab-COOCH2CH2OMe]	> 1000 nM
CCCCOC(=O)N=C(N)c1ccc(CNC(=O)C2CCN2C(=O)C(NCC(=O)OCC)C2CCCCC2)cc1 [Example 9, EtOOCCH2—(R)Cgl-Aze-Pab-COO-nBu]	> 1000 nM
NC(=NC(=O)OCc1ccccc1)c1ccc(CNC(=O)C2CCN2C(=O)C(NCC(=O)OCCCC(=O)N2CCCC2)C2CCCCC2)cc1 [Example 10, PrlC(O)CH2CH2CH2OOCCH2—(R)Cgl-Aze-Pab-Z]	> 1000 nM
NC(=NC(=O)OCc1ccccc1)c1ccc(CNC(=O)C2CCN2C(=O)C(NCC(=O)OCC(=O)NC2CCCCC2)C2CCCCC2)cc1 [Example 11, ChNHC(O)CH2OOCCH2—(R)Cgl-Aze-Pab-Z]	> 1000 nM
CCCN(CCC)C(=O)COC(=O)CNC(C(=O)N1CCC1C(=O)NCc1ccc(C(N)=NC(=O)OCOC(=O)C(C)(C)C)cc1)C1CCCCC1 [Example 12, (nPr)2NC(O)CH2OOCCH2—(R)Cgl-Aze-Pab-COOCH2OOCC(CH3)3]	> 1000 nM
CCOC(=O)CNC(C(=O)N1CCC1C(=O)NCc1ccc(C(N)=NC(=O)OCOC(=O)C(C)(C)C)cc1)C1CCCCC1 [Example 13, EtOOCCH2—(R)Cgl-Aze-Pab-COOCH2OOCC(CH3)3]	> 1000 nM
CCOC(=O)CNC(C(=O)N1CCC1C(=O)NCc1ccc(C(N)=NC(=O)OC(C)OC(C)=O)cc1)C1CCCCC1 [Example 14, EtOOCCH2—(R)Cgl-Aze-Pab-COOCH(CH3)OOCCH3]	> 1000 nM
COC(=O)CNC(C(=O)N1CCC1C(=O)NCc1ccc(C(N)=NOC(=O)c2ccccc2)cc1)C1CCCCC1 [Example 15, MeOOCCH2—(R)Cgl-Aze-Pab-OOCPh]	> 1000 nM
COC(=O)CNC(C(=O)N1CCC1C(=O)NCc1ccc(C(N)=NO)cc1)C1CCCCC1 [Example 16, MeOOCCH2—(R)Cgl-Aze-Pab-OH]	> 1000 nM
NC(=NO)c1ccc(CNC(=O)C2CCN2C(=O)C(NCC(=O)OCc2ccccc2)C2CCCCC2)cc1 [Example 18, BnOOCCH2—(R)Cgl-Aze-Pab-OH]	> 1000 nM
CCCOC(=O)CNC(C(=O)N1CCC1C(=O)NCc1ccc(C(N)=NC(=O)OCc2ccccc2)cc1)C1CCCCC1 [Example 19, nPrOOCCH2—(R)Cgl-Aze-Pab-Z]	> 1000 nM
CCCOC(=O)CNC(C(=O)N1CCC1C(=O)NCc1ccc(C(N)=NO)cc1)C1CCCCC1 [Example 20, nPrOOCCH2—(R)Cgl-Aze-Pab-OH]	> 1000 nM
CC(C)OC(=O)CNC(C(=O)N1CCC1C(=O)NCc1ccc(C(N)=NO)cc1)C1CCCCC1 [Example 21, iPrOOCCH2—(R)Cgl-Aze-Pab-OH]	> 1000 nM
CC(C)(C)OC(=O)CNC(C(=O)N1CCC1C(=O)NCc1ccc(C(N)=NO)cc1)C1CCCCC1 [Example 22, tBuOOCCH2—(R)Cgl-Aze-Pab-OH]	> 1000 nM
CCCN(CCC)C(=O)COC(=O)CNC(C(=O)N1CCC1C(=O)NCc1ccc(C(N)=NO)cc1)C1CCCCC1 [Example 23, (nPr)2NCOCH2OOCCH2—(R)Cgl-Aze-Pab(OH)]	> 1000 nM
NC(=NO)c1ccc(CNC(=O)C2CCN2C(=O)C(NCC(=O)OCC(=O)NC2CCCCC2)C2CCCCC2)cc1 [Example 24, ChNHCOCH2OOCCH2—(R)Cgl-Aze-Pab-OH]	> 1000 nM
CNC(=O)COC(=O)CNC(C(=O)N1CCC1C(=O)NCc1ccc(C(N)=NO)cc1)C1CCCCC1 [Example 25, MeNHCOCH2OOCCCH2—(R)Cgl-Aze-Pab-OH]	> 1000 nM
CCOC(=O)CNC(C(=O)N1CCC1C(=O)NCc1ccc(C(N)=NOC(C)=O)cc1)C1CCCCC1 [Example 26, EtOOCCH2—(R)Cgl-Aze-Pab-OAc]	> 1000 nM

SMILES	IC50
CCOC(=O)CNC(C(=O)N1CCC1C(=O)NCc1ccc(C(N)=NOC(=O)CC)cc1)C1CCCCC1 [Example 27, EtOOCCH2—(R)Cgl-Aze-Pab-OC(O)Et]	> 1000 nM
NC(=NO)c1ccc(CNC(=O)C2CCN2C(=O)C(NCC(=O)O)C2CCCCC2)cc1 [Example 28, HOOCCH2—(R)Cgl-Aze-Pab-OH]	> 1000 nM
CCCCCCCCC=CCCCCCCCC(=O)ON=C(N)c1ccc(CNC(=O)C2CCN2C(=O)C(NCC(=O)O)C2CCCCC2)cc1 [Example 29, HOOCCH2—(R)Cgl-Aze-Pab-O-cis-Oleyl]	> 1000 nM
NC(=NC(=O)OCc1ccccc1)c1ccc(CNC(=O)C2CCN2C(=O)C(NCC(=O)OC2CCCCCCC2)C2CCCCC2)cc1 [Example 30, Cyclooctyl-OOCCH2—(R)Cgl-Aze-Pab-Z]	> 1000 nM
CC(C)(C)COC(=O)CNC(C(=O)N1CCC1C(=O)NCc1ccc(C(N)=NC(=O)OCc2ccccc2)cc1)C1CCCCC1 [Example 31, tBuCH2—OOCCH2—(R)Cgl-Aze-Pab-Z]	> 1000 nM
Cc1ccccc1COC(=O)CNC(C(=O)N1CCC1C(=O)NCc1ccc(C(N)=NC(=O)OCc2ccccc2)cc1)C1CCCCC1 [Example 32, (2-Me)BnOOCCH2—(R)Cgl-Aze-Pab-Z]	> 1000 nM
NC(=NC(=O)OCc1ccccc1)c1ccc(CNC(=O)C2CCN2C(=O)C(NCC(=O)OCC2CCCCC2)C2CCCCC2)cc1 [Example 33, ChCH2OOCCH2—(R)Cgl-Aze-Pab-Z]	> 1000 nM
NC(=NC(=O)OCc1ccccc1)c1ccc(CNC(=O)C2CCN2C(=O)C(NCC(=O)OC2CCCCC2)C2CCCCC2)cc1 [Example 34, ChOOCCH2—(R)Cgl-Aze-Pab-Z]	> 1000 nM
CC(C)(OC(=O)CNC(C(=O)N1CCC1C(=O)NCc1ccc(C(N)=NC(=O)OCc2ccccc2)cc1)C1CCCCC1)c1ccccc1 [Example 35, PhC(Me)2OOCCH2—(R)Cgl-Aze-Pab-Z]	> 1000 nM
CNC(=O)COC(=O)CNC(C(=O)N1CCC1C(=O)NCc1ccc(C(N)=NC(=O)OCc2ccccc2)cc1)C1CCCCC1 [Example 36, MeNCOCH2OOCCH2—(R)Cgl-Aze-Pab-Z]	> 1000 nM
CC(C)(C)OC(=O)CNC(C(=O)N1CCC1C(=O)NCc1ccc(C(N)=NC(=O)OCc2ccccc2)cc1)C1CCCCC1 [Example 37, tBuOOCCH2—(R)Cgl-Aze-PabZ]	> 1000 nM
CC(C)C(C)(C)OC(=O)CNC(C(=O)N1CCC1C(=O)NCc1ccc(C(N)=NC(=O)OCc2ccccc2)cc1)C1CCCCC1 [Example 38, (Me)2CHC(Me)2OOCCH2—(R)Cgl-Aze-Pab-Z]	> 1000 nM
CC(C)OC(=O)CNC(C(=O)N1CCC1C(=O)NCc1ccc(C(N)=NC(=O)OCc2ccccc2)cc1)C1CCCCC1 [Example 39, iPrOOCCH2—(R)Cgl-Aze-Pab-Z]	> 1000 nM
COc1ccc(OC(=O)N=C(N)c2ccc(CNC(=O)C3CCN3C(=O)C(NCC(=O)OCc3ccccc3)C3CCCCC3)cc2)cc1 [Example 40, BnOOCCH2—(R)Cgl-Aze-Pab-COOPh(4-OMe)]	> 1000 nM
COc1ccc(OC(=O)N=C(N)c2ccc(CNC(=O)C3CCN3C(=O)C(NCC(=O)OCC3CCCCC3)C3CCCCC3)cc2)cc1 [Example 41, ChCH2OOCCH2—(R)Cgl-Aze-Pab-COOPh(4-OMe)]	> 1000 nM
COc1ccc(OC(=O)N=C(N)c2ccc(CNC(=O)C3CCN3C(=O)C(NCC(=O)OCc3ccccc3C)C3CCCCC3)cc2)cc1 [Example 42, (2-Me)BnOOCCH2—(R)Cgl-Aze-Pab-COOPh(4-OMe)]	> 1000 nM
CCOC(=O)CNC(C(=O)N1CCC1C(=O)NCc1ccc(C(N)=NC(=O)Oc2ccc(C)cc2)cc1)C1CCCCC1 [Example 43, EtOOCCH2—(R)Cgl-Aze-Pab-COOPh(4-Me)]	> 1000 nM
Cc1ccc(OC(=O)N=C(N)c2ccc(CNC(=O)C3CCN3C(=O)C(NCC(=O)OCc3ccccc3)C3CCCCC3)cc2)cc1 [Example 44, BnOOCCH2—(R)Cgl-Aze-Pab-COOPh(4-Me)]	> 1000 nM
CCCCOC(=O)N=C(N)c1ccc(CNC(=O)C2CCN2C(=O)C(NCC(=O)OCc2ccccc2)C2CCCCC2)cc1 [Example 45, BnOOCCH2—(R)Cgl-Aze-Pab-COO-nBu]	> 1000 nM
C=CCOC(=O)N=C(N)c1ccc(CNC(=O)C2CCN2C(=O)C(NCC(=O)OC(C)C)C2CCCCC2)cc1 [Example 46, iPrOOCCH2—(R)Cgl-Aze-Pab-COOCH2CH═CH2]	> 1000 nM
CCOC(=O)CNC(C(=O)N1CCC1C(=O)NCc1ccc(C(N)=NC(=O)OCC(C)C)cc1)C1CCCCC1 [Example 47, EtOOCCH2—(R)Cgl-Aze-Pab-COO-iBu]	> 1000 nM
CCCOC(=O)N=C(N)c1ccc(CNC(=O)C2CCN2C(=O)C(NCC(=O)OCc2ccccc2)C2CCCCC2)cc1 [Example 48, BnOOCCH2—(R)Cgl-Aze-Pab-COO-nPr]	> 1000 nM
CCOC(=O)CNC(C(=O)N1CCC1C(=O)NCc1ccc(C(N)=NC(=O)OCOC(=O)CC2CCCCC2)cc1)C1CCCCC1 [Example 50, EtOOCCH2—(R)Cgl-Aze-Pab-COOCH2OOCCH2Ch]	> 1000 nM
CCOC(=O)CNC(C(=O)N1CCC1C(=O)NCc1ccc(C(N)=NC(=O)OC(C)OC(=O)c2ccccc2)cc1)C1CCCCC1 [Example 51, EtOOCCH2—(R)Cgl-Aze-Pab-COOCH(Me)OOCPh]	> 1000 nM
CCOC(=O)CNC(C(=O)N1CCC1C(=O)NCc1ccc(C(N)=NC(=O)OCOC(=O)c2ccccc2)cc1)C1CCCCC1 [Example 52, EtOOCCH2—(R)Cgl-Aze-Pab-COOCH2OOCPh]	> 1000 nM
